Results reported in paper PMC7291619.

The chains behind the UniProt entries cited, without tags or fusion partners. Where a name states a change or a piece, a line headed by the entry shows the natural chain unless it says otherwise.
UniProt Q583Z0: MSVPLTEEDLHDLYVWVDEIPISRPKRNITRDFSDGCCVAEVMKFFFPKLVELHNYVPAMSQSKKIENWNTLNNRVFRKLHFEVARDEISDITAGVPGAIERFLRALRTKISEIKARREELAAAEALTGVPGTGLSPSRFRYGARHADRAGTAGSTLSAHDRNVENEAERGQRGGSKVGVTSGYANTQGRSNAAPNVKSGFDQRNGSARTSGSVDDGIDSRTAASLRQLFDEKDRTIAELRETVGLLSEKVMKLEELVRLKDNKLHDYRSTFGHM
UniProt Q57ZN6: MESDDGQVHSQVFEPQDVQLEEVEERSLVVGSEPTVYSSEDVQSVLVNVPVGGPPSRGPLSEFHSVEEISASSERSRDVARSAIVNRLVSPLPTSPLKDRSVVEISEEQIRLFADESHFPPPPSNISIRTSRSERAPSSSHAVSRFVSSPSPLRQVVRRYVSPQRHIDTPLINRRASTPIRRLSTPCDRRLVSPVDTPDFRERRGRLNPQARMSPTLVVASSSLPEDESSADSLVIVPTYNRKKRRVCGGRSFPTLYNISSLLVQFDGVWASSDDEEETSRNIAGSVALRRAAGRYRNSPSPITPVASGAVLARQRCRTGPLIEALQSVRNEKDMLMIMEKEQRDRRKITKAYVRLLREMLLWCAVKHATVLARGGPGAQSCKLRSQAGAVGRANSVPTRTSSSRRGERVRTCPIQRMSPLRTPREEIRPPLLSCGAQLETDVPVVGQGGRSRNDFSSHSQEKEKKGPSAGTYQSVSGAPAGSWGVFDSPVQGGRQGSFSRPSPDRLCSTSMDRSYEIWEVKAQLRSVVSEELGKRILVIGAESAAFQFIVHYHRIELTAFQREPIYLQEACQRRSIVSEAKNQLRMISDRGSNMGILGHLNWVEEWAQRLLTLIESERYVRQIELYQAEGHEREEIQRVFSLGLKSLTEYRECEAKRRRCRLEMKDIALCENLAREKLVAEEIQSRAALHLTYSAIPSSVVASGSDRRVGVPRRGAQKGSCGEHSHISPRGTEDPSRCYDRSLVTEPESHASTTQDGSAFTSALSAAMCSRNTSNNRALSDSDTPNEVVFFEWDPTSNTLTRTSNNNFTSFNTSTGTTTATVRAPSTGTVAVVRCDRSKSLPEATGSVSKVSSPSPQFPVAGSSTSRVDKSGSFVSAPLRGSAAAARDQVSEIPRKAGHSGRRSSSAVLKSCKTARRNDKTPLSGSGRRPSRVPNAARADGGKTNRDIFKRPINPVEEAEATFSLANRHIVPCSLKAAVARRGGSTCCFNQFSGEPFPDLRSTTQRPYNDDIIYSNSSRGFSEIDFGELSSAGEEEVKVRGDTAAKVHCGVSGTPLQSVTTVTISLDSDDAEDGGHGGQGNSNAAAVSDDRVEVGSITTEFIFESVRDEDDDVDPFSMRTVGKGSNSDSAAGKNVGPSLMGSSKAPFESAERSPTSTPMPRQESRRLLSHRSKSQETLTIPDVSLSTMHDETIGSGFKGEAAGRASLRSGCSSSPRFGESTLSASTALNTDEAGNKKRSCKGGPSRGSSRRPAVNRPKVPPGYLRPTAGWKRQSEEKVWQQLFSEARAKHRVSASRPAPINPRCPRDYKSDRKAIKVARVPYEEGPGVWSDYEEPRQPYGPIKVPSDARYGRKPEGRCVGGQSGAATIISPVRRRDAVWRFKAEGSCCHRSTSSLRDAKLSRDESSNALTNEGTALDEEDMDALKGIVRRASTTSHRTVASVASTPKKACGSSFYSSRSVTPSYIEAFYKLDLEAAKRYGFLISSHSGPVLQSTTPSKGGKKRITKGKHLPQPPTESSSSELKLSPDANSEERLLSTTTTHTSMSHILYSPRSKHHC
UniProt Q585C5: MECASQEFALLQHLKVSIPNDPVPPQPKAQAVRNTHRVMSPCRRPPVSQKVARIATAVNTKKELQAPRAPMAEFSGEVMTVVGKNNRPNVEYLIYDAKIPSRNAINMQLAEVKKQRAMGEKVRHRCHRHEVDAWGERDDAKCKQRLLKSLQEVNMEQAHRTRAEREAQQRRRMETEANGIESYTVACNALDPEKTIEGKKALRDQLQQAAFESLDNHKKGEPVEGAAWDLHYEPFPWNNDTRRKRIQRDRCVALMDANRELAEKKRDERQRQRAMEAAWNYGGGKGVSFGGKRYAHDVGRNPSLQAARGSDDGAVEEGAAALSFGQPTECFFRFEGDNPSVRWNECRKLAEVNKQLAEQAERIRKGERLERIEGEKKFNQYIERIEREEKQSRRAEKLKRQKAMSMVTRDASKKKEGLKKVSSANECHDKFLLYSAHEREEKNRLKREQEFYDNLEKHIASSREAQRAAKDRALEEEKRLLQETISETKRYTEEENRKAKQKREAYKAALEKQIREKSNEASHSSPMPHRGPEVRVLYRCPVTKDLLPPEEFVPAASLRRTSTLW
UniProt Q57WL4: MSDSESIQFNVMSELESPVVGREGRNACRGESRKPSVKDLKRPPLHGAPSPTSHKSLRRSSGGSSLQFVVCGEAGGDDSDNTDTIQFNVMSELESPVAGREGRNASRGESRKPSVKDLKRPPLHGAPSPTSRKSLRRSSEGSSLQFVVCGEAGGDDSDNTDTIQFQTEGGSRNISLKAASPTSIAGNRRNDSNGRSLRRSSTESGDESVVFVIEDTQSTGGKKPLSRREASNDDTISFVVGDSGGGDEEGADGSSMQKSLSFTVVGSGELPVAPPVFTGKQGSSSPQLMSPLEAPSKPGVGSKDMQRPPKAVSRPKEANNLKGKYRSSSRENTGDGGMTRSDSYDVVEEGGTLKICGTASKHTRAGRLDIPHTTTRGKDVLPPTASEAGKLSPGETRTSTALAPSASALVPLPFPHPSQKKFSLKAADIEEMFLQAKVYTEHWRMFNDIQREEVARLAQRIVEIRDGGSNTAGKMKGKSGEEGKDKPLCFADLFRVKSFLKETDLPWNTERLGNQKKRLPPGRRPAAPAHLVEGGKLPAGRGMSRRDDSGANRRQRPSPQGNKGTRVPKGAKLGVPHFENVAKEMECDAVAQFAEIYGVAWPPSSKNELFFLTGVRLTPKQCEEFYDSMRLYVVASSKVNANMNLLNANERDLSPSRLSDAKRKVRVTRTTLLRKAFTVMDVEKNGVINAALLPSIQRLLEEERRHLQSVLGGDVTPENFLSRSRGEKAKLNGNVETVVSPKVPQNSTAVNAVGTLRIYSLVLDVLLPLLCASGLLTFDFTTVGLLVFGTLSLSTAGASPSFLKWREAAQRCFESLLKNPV
UniProt Q388X1: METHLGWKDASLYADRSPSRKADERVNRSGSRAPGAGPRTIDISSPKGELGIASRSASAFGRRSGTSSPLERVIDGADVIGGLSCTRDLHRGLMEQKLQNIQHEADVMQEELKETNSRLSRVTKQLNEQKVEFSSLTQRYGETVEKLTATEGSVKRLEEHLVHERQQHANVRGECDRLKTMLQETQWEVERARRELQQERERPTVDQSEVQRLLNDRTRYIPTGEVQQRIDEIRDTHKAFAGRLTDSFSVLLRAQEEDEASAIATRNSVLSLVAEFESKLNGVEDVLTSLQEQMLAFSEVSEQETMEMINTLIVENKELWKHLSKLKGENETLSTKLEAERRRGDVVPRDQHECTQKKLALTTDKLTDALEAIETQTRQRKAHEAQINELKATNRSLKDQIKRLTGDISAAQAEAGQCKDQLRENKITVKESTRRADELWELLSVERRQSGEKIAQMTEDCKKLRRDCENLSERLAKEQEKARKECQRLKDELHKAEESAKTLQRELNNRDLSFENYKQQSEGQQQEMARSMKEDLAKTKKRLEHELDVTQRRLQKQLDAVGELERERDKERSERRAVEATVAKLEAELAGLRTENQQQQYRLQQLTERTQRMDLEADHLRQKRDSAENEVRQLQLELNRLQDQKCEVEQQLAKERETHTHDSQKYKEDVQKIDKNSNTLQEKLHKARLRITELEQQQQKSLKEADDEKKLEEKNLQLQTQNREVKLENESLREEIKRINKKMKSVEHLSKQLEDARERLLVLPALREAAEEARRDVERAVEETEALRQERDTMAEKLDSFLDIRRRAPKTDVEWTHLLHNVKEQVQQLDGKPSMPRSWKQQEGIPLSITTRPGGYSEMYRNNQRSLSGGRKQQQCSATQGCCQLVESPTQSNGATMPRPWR
UniProt Q387D0: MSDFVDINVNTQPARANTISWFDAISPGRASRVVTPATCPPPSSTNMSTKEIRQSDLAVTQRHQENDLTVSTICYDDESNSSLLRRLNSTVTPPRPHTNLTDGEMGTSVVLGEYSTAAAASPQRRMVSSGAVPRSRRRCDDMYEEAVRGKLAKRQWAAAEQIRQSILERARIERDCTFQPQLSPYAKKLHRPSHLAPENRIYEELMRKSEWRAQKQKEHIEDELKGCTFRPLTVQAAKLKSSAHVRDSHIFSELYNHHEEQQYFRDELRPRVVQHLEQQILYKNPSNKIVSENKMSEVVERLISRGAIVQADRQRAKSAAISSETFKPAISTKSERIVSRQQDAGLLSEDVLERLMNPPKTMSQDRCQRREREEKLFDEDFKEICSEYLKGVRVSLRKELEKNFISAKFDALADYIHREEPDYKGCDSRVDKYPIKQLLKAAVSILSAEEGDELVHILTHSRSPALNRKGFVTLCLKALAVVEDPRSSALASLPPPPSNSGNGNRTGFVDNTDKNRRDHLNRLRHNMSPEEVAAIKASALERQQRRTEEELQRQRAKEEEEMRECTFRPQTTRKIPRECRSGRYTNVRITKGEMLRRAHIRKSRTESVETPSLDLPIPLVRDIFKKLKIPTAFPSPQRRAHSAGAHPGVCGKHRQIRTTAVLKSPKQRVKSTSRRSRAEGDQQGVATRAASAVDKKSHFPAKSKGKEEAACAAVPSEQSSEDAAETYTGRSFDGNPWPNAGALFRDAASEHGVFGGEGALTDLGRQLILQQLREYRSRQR
UniProt Q57UR7: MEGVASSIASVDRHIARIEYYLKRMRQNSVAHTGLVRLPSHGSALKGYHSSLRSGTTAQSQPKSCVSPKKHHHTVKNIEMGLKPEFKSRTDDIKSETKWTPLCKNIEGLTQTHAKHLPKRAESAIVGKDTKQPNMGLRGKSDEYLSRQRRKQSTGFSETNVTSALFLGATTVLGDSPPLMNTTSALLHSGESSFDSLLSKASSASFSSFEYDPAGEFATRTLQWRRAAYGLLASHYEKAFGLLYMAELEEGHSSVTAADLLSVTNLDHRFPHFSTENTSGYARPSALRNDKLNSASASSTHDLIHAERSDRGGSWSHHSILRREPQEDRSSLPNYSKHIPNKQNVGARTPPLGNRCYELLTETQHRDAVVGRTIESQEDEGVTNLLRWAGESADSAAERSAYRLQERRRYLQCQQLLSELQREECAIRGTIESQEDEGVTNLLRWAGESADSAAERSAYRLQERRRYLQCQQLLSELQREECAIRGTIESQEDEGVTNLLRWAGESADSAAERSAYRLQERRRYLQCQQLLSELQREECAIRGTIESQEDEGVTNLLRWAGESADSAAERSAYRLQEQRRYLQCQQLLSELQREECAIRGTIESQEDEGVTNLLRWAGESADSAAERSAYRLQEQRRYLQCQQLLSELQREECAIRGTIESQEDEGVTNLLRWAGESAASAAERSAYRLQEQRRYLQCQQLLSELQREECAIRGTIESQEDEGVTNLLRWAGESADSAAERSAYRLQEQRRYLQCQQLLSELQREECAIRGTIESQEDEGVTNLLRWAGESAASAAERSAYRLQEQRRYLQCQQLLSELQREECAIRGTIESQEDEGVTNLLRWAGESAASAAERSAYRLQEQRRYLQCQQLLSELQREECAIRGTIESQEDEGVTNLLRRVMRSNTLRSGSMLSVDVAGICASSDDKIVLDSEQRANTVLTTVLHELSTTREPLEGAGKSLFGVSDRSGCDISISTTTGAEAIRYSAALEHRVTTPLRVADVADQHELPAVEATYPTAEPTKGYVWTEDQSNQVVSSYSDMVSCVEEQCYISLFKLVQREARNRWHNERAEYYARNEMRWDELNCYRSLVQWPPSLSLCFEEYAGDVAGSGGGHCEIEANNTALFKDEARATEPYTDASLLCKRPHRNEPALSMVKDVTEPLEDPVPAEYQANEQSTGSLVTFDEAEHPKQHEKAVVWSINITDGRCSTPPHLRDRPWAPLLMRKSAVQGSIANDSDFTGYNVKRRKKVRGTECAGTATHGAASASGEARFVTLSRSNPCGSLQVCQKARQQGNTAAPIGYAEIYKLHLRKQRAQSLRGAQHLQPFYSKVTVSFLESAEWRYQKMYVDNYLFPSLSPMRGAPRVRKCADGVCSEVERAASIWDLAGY

Target: Myc-BirA*-TbSpef1 (Trypanosoma brucei) (UniProt Q583Z0)
Assay: proximity labelling; BioID in T. brucei procyclic cells with endogenously expressed BirA* fusions of TbSpef1; 50 uM biotin for 24 h; NP-40-resistant cytoskeleton solubilised in 0.4% SDS, 500 mM NaCl; streptavidin beads; LC-MS/MS; wild-type 29-13 cells as control; three experiments (two with the N-terminal fusion, one with the C-terminal fusion)

binding, binds:
FAZ10 (from UniProt Q57WE8), Tb927.3.2760 (from UniProt Q57ZN6), Tb927.4.4180 (from UniProt Q57Y22), Tb927.5.570 (from UniProt Q57VV6), Tb927.6.1220 (from UniProt Q585C5), Tb927.8.8160 (from UniProt Q57WL4), Tb927.10.12720 (from UniProt Q388X1), Tb927.11.1220 (from UniProt Q387D0), TbSAF1 (TbSpef1-Associated Factor 1) (from UniProt Q57UR7)

Results are given in words; binding and its absence hold for the method and conditions named. In cells and extracts the contact can be indirect. Here binding means that the protein was enriched with, or labelled near, the bait; the list need not be complete.
